Test results as given in the supplement of paper PMC10849652.
Some of the results follow.

Amino acid sequences for entries named in this document (tags omitted). A change or cut given only in a name is not applied to a line headed by its entry.
UniProt P32189: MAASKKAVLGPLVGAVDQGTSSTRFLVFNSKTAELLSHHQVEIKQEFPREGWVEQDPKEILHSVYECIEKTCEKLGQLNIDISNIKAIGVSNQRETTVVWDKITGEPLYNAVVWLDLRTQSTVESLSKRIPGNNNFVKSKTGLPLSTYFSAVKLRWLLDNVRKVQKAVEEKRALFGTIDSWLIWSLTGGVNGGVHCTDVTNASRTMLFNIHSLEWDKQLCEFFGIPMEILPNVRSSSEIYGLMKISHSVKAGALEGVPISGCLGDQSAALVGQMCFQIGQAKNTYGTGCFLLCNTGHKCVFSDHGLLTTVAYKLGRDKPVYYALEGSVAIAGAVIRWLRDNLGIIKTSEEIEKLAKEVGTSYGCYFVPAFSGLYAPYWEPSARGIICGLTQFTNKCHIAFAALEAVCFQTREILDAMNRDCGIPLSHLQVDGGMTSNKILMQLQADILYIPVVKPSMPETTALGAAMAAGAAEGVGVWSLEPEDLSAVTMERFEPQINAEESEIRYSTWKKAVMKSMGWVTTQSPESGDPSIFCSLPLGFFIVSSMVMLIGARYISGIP
UniProt Q49A26: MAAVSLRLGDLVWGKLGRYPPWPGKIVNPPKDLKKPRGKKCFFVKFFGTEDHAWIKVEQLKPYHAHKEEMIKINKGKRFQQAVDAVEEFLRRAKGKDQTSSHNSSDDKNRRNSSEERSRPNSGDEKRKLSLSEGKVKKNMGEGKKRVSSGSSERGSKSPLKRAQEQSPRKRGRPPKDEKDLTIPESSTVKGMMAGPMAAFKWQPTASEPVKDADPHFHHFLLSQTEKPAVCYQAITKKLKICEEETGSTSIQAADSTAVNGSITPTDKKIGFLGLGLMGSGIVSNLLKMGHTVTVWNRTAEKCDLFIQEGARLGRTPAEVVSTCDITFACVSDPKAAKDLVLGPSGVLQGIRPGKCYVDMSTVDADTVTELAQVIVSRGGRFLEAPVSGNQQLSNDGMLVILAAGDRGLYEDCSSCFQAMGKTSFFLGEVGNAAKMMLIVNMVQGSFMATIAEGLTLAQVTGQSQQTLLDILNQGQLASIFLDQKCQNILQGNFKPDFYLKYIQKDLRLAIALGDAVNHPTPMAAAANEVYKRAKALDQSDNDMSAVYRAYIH
UniProt Q8N954: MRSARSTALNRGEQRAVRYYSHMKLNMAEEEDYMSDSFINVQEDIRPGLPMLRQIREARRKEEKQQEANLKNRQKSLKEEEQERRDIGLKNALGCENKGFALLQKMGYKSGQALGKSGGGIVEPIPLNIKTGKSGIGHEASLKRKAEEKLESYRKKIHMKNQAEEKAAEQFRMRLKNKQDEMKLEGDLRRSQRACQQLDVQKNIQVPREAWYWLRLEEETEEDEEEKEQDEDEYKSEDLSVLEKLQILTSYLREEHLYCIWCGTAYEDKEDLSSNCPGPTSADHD
UniProt P62873, whole entry, looked up: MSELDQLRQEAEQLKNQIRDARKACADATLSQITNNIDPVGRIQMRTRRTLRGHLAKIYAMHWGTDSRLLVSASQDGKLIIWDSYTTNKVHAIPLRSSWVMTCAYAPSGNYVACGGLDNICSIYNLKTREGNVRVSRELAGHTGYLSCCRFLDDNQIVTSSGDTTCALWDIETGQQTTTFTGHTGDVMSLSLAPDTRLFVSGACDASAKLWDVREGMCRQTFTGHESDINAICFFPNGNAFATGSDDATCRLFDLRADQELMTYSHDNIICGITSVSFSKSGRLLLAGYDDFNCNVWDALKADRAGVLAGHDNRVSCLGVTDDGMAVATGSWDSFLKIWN
UniProt P04899, whole entry, looked up: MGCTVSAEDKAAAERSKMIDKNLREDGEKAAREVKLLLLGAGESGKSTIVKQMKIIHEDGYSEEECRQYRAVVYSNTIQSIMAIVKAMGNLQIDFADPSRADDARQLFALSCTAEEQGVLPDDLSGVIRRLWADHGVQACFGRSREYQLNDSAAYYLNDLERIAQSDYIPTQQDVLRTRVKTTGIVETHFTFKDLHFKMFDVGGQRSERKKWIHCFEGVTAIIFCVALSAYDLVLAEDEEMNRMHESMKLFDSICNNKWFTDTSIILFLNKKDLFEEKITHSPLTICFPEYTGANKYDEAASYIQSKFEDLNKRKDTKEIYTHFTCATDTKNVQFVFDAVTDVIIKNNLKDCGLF
UniProt Q9NQX3: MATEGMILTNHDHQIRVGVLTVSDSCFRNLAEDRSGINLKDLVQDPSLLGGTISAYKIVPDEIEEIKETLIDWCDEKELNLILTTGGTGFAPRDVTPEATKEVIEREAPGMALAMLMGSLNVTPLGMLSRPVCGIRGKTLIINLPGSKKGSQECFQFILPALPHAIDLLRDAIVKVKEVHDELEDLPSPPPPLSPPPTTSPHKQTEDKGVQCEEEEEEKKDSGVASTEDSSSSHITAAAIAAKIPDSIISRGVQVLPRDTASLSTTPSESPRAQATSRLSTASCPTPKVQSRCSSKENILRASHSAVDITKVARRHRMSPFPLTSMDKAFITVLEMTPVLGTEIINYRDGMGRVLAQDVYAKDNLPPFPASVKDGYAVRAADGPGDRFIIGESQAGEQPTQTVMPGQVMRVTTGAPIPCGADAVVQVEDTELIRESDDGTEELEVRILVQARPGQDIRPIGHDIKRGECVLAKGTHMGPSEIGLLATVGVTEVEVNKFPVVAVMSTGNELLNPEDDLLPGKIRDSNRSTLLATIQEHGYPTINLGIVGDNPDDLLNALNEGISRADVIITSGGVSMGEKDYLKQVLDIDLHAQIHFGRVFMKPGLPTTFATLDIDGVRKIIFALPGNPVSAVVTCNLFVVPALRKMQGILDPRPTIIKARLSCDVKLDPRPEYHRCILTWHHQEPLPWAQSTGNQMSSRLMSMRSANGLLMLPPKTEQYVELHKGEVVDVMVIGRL
UniProt Q86UL3: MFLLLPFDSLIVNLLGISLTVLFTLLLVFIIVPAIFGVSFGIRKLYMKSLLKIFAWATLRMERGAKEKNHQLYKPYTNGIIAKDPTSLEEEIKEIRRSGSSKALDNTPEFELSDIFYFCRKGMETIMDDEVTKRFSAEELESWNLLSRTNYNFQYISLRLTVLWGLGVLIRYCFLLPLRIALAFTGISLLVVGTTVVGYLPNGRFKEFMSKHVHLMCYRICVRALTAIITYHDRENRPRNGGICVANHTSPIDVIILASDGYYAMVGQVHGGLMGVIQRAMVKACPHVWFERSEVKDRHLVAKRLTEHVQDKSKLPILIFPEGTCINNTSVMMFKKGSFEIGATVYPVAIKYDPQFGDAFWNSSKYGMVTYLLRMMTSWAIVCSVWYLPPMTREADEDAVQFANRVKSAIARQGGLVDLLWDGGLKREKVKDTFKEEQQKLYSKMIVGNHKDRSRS
UniProt Q9BYB4: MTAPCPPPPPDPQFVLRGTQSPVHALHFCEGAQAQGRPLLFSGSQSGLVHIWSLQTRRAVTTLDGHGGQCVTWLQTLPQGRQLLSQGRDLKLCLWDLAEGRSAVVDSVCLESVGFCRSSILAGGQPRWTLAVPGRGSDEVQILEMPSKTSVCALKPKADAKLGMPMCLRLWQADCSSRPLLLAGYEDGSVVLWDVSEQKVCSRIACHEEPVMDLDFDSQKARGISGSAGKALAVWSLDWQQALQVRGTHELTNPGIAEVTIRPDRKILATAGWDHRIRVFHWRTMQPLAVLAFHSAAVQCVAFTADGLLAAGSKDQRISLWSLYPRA
UniProt Q9BRX5: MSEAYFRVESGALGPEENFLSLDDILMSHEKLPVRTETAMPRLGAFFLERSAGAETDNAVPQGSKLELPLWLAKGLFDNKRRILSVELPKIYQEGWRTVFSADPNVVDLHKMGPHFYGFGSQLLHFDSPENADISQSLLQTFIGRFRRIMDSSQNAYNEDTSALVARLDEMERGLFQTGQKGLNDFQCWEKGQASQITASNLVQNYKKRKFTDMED
UniProt Q9Y248: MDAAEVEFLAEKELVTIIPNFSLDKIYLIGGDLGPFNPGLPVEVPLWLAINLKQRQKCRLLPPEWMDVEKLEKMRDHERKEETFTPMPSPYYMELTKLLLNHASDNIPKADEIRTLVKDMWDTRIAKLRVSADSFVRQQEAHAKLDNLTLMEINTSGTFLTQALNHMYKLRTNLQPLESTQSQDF
UniProt Q8TBA6: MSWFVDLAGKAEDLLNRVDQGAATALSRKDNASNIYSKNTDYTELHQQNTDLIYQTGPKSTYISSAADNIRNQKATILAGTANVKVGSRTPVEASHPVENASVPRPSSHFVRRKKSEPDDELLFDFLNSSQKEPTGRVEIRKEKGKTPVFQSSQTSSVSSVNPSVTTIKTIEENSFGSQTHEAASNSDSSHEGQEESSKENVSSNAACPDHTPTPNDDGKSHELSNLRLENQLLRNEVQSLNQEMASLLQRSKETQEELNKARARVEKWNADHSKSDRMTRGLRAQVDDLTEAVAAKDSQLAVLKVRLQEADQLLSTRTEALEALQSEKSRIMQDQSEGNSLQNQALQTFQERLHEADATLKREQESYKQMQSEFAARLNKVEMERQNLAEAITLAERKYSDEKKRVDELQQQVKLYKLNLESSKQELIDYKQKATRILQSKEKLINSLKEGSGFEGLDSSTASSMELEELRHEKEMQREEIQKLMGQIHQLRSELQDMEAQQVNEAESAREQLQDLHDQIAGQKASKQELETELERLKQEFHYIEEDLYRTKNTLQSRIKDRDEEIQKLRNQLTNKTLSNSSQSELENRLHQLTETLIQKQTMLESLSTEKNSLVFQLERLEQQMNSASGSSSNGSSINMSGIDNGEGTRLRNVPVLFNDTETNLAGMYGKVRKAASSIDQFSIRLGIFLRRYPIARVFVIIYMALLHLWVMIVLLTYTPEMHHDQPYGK
UniProt Q9Y223: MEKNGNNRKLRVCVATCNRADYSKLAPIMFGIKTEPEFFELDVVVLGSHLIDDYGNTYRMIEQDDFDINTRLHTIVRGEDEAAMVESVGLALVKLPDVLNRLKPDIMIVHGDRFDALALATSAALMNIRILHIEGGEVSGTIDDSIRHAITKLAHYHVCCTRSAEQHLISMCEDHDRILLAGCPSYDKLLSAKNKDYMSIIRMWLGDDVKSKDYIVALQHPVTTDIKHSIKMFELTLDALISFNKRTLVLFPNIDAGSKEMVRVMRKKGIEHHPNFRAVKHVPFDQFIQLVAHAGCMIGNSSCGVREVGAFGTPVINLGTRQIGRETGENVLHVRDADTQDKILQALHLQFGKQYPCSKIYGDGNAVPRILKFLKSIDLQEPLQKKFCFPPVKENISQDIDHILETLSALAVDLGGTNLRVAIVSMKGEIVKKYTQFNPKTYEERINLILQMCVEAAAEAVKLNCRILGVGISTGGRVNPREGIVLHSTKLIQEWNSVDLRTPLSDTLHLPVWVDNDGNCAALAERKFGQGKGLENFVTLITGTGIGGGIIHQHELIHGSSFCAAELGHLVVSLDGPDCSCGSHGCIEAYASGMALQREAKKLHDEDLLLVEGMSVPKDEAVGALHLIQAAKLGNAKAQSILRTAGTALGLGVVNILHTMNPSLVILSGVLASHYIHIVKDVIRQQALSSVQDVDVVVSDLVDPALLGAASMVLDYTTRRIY
UniProt Q96EK6: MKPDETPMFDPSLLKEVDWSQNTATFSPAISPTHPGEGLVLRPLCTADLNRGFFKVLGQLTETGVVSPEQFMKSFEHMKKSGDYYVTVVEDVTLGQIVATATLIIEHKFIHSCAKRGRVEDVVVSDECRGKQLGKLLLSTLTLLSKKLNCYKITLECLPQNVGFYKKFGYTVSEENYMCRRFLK
UniProt Q9UHW5, whole entry, looked up: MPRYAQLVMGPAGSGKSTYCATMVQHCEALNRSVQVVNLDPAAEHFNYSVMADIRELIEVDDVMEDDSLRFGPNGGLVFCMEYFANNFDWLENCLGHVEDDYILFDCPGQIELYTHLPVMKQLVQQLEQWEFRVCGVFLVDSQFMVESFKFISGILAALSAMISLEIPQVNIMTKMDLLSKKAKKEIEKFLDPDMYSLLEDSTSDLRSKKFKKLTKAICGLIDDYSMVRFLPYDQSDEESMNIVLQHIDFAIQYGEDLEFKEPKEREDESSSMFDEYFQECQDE
UniProt Q9NS18: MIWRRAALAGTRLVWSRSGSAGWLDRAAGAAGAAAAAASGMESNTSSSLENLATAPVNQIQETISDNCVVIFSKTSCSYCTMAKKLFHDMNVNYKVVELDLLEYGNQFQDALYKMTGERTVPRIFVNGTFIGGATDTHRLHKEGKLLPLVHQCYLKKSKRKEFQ
UniProt P62993, whole entry, looked up: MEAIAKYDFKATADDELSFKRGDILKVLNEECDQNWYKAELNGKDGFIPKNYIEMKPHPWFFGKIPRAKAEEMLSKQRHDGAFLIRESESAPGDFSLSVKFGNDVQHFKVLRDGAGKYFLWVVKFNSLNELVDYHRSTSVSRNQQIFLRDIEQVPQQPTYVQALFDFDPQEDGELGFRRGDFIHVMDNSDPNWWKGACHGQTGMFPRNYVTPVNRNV
UniProt Q86SX6: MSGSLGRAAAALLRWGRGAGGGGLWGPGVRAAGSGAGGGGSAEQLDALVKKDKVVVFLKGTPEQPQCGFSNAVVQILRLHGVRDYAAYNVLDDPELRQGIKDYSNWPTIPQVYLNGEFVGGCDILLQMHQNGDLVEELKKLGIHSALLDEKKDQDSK

compound: CCn1cc(-c2ccnc3[nH]c(-c4cccc(CN(C)C)c4)cc23)c(-c2ccc(NC(=O)N(C)C)cc2)n1; assay: log2 fold change, soluble protein after heating vs DMSO (PISA); higher = thermal stabilisation; K562 cells, 10 uM, 30 min; active = over 0.2 and 3.5 SD of the protein, either way, in both replicates (recomputed)
Method in brief: (§1)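 Quantification of soluble protein used TMTpro 16plex LC-MS/MS, with channel sums equalised. Samples were the supernatant after 21,000xg for 90 min of pooled aliquots from K562 cells (2×10^6 cells/mL) treated with 10 μM compound for 30 min, heated for 3 min over 48°C-58°C, and extracted in PBS with 0.5% NP-40 at 4°C. Values, from duplicates, describe thermal stability against control samples on a log2 fold-change scale.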

log2 fold change, inactive:
GK (UniProt P32189) 0.007
GLYR1 (UniProt Q49A26) 0.026
GPATCH11 (UniProt Q8N954) 0.032
GPKOW (UniProt Q92917) -0.049
GNB1 (UniProt P62873) -0.032
GINS1 (UniProt Q14691) -0.071
GNB2 (UniProt P62879) -0.023
GNAI2 isoform 4 (UniProt P04899) 0.037
GPALPP1 (UniProt Q8IXQ4) -0.038
GMPPB isoform 2 (UniProt Q9Y5P6) -0.066
GNB4 (UniProt Q9HAV0) -0.076
GPHN isoform 2 (UniProt Q9NQX3) -0.019
GNL1 (UniProt P36915) -0.1
GSK3A (UniProt P49840) -0.101
GPAT4 (UniProt Q86UL3) -0.039
GIPC1 (UniProt O14908) -0.019
GNB1L (UniProt Q9BYB4) -0.014
GMNN (UniProt O75496) 0.019
GMDS (UniProt O60547) 0.002
GPS1 isoform 7 (UniProt Q13098) -0.02
GINS4 (UniProt Q9BRT9) -0.064
GM2A (UniProt P17900) -0.03
GINS3 (UniProt Q9BRX5) -0.01
GNPDA1 (UniProt P46926) 0.003
GMEB2 (UniProt Q9UKD1) -0.048
GPN1 isoform 5 (UniProt Q9HCN4) -0.055
GPR89A (UniProt B7ZAQ6) 0.048
GINS2 (UniProt Q9Y248) -0.135
GOLGA5 (UniProt Q8TBA6) -0.022
GNE isoform 2 (UniProt Q9Y223) -0.165
GNPNAT1 (UniProt Q96EK6) 0.022
GLOD4 isoform 2 (UniProt Q9HC38) -0.075
GRHPR (UniProt Q9UBQ7) -0.088
GPN3 isoform 2 (UniProt Q9UHW5) -0.016
GLRX2 isoform 2 (UniProt Q9NS18) -0.04
GMPR2 isoform 2 (UniProt Q9P2T1) -0.044
GRSF1 (UniProt Q12849) 0.138
GRB2 (UniProt P62993) -0.075

compound: CN(C)CC(=O)Nc1ccc2[nH]c(=O)c3ccccc3c2c1; assay: as above
Method in brief: as §1

log2 fold change, inactive:
GPAT3 (UniProt Q53EU6) 0.008
GK (UniProt P32189) -0.04
GLYR1 (UniProt Q49A26) -0.038
GPATCH11 (UniProt Q8N954) -0.049
GPKOW (UniProt Q92917) 0.039
GNB1 (UniProt P62873) 0.014
GINS1 (UniProt Q14691) -0.01
GNB2 (UniProt P62879) -0.042
GNAI2 isoform 4 (UniProt P04899) -0.04
GPALPP1 (UniProt Q8IXQ4) -0.032
GMPPB isoform 2 (UniProt Q9Y5P6) 0.002
GNB4 (UniProt Q9HAV0) -0.008
GPHN isoform 2 (UniProt Q9NQX3) -0.002
GNL1 (UniProt P36915) 0.024
GSK3A (UniProt P49840) -0.008
GPAT4 (UniProt Q86UL3) 0.029
GIPC1 (UniProt O14908) 0.069
GNB1L (UniProt Q9BYB4) -0.043
GMNN (UniProt O75496) -0.038
GMDS (UniProt O60547) -0.015
GPS1 isoform 7 (UniProt Q13098) -0.012
GINS4 (UniProt Q9BRT9) 0.018
GM2A (UniProt P17900) 0.106
GLRX5 (UniProt Q86SX6) 0.099
GINS3 (UniProt Q9BRX5) -0.003
GNPDA1 (UniProt P46926) -0.021
GMEB2 (UniProt Q9UKD1) 0.018
GPN1 isoform 5 (UniProt Q9HCN4) -0.002
GPR89A (UniProt B7ZAQ6) 0.012
GINS2 (UniProt Q9Y248) 0.06
GOLGA5 (UniProt Q8TBA6) 0.005
GNE isoform 2 (UniProt Q9Y223) 0.015
GNPNAT1 (UniProt Q96EK6) 0.021
GLOD4 isoform 2 (UniProt Q9HC38) 0.019
GRHPR (UniProt Q9UBQ7) 0.005
GPN3 isoform 2 (UniProt Q9UHW5) 0.011
GLRX2 isoform 2 (UniProt Q9NS18) -0.035
GMPR2 isoform 2 (UniProt Q9P2T1) -0.051
GRSF1 (UniProt Q12849) 0.008
GRB2 (UniProt P62993) -0.027
